Data source: PubChem BioAssay AID1259254 (NCATS, 2017)
Shown is an unselected part of about 59,000 reagents tested. About 1,550 of all reagents (2.6%) count as active. 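G2 share is only a proxy for re-replication; each gene was hit by three separate siRNAs, and active genes were retested.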 Unmarked entries are inactive. Reagents against one gene are numbered here. Further read-outs or replicates are left out here. Not given: the amount of reagent.

- Assay: 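Finding genes that stop cells copying their DNA twice in one cycle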 (primary screen)
- Cell system: human HCT116 colorectal cancer cells
- Knock-down reagent: single siRNA against human genes
- Timing: 3 days
- Measurement: 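Nuclei stained with Hoechst and imaged; cell-cycle phase assigned by DNA content; G2 share scaled per plate, non-targeting siRNA 0%, GMNN siRNA 100%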
- Scale: G2 robust z-score and G2 cells, % of GMNN control: higher = more G2 cells, more excess DNA replication
- Active means: 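Active siRNAs have a G2 robust z of 5 or more median absolute deviations over the median, which in these data means about 38% or higher of GMNN control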

{"gene": "ERH", "siRNA no.": 1, "G2 robust z-score": 0.506, "G2 cells, % of GMNN control": 6.52}
{"gene": "ERH", "siRNA no.": 2, "G2 robust z-score": 4.34, "G2 cells, % of GMNN control": 33.5}
{"gene": "ERH", "siRNA no.": 3, "G2 robust z-score": 1.54, "G2 cells, % of GMNN control": 13.8}
{"gene": "HCCAT5", "siRNA no.": 1, "G2 robust z-score": 0.535, "G2 cells, % of GMNN control": 6.73}
{"gene": "HCCAT5", "siRNA no.": 2, "G2 robust z-score": -0.804, "G2 cells, % of GMNN control": -2.69}
{"gene": "HCCAT5", "siRNA no.": 3, "G2 robust z-score": 0.529, "G2 cells, % of GMNN control": 6.69}
{"gene": "ARSG", "siRNA no.": 1, "G2 robust z-score": 0.549, "G2 cells, % of GMNN control": 6.83}
{"gene": "ARSG", "siRNA no.": 2, "G2 robust z-score": 3.96, "G2 cells, % of GMNN control": 30.8}
{"gene": "ARSG", "siRNA no.": 3, "G2 robust z-score": 1.54, "G2 cells, % of GMNN control": 13.8}
{"gene": "ERAP2", "siRNA no.": 1, "G2 robust z-score": "5.98 (active)", "G2 cells, % of GMNN control": 45.1}
{"gene": "ERAP2", "siRNA no.": 2, "G2 robust z-score": -0.166, "G2 cells, % of GMNN control": 1.8}
{"gene": "ERAP2", "siRNA no.": 3, "G2 robust z-score": 0.0631, "G2 cells, % of GMNN control": 3.41}
{"gene": "SKIDA1", "siRNA no.": 1, "G2 robust z-score": -0.56, "G2 cells, % of GMNN control": -0.975}
{"gene": "SKIDA1", "siRNA no.": 2, "G2 robust z-score": 2.6, "G2 cells, % of GMNN control": 21.2}
{"gene": "SKIDA1", "siRNA no.": 3, "G2 robust z-score": -0.555, "G2 cells, % of GMNN control": -0.941}
{"gene": "ZC3H8", "siRNA no.": 1, "G2 robust z-score": -0.535, "G2 cells, % of GMNN control": -0.794}
{"gene": "ZC3H8", "siRNA no.": 2, "G2 robust z-score": -0.171, "G2 cells, % of GMNN control": 1.76}
{"gene": "ZC3H8", "siRNA no.": 3, "G2 robust z-score": 0.134, "G2 cells, % of GMNN control": 3.91}
{"gene": "SPR", "siRNA no.": 1, "G2 robust z-score": 0.305, "G2 cells, % of GMNN control": 5.12}
{"gene": "SPR", "siRNA no.": 2, "G2 robust z-score": -0.0751, "G2 cells, % of GMNN control": 2.44}
{"gene": "SPR", "siRNA no.": 3, "G2 robust z-score": 0.874, "G2 cells, % of GMNN control": 9.11}
{"gene": "LINC01116", "siRNA no.": 1, "G2 robust z-score": 0.701, "G2 cells, % of GMNN control": 7.9}
{"gene": "LINC01116", "siRNA no.": 2, "G2 robust z-score": 0.851, "G2 cells, % of GMNN control": 8.95}
{"gene": "LINC01116", "siRNA no.": 3, "G2 robust z-score": 1.09, "G2 cells, % of GMNN control": 10.7}

Targets listed so far whose gene name begins with E or e:
{"gene": "ERH", "siRNA no.": 1, "G2 robust z-score": 0.506, "G2 cells, % of GMNN control": 6.52}
{"gene": "ERH", "siRNA no.": 2, "G2 robust z-score": 4.34, "G2 cells, % of GMNN control": 33.5}
{"gene": "ERH", "siRNA no.": 3, "G2 robust z-score": 1.54, "G2 cells, % of GMNN control": 13.8}
{"gene": "ERAP2", "siRNA no.": 1, "G2 robust z-score": "5.98 (active)", "G2 cells, % of GMNN control": 45.1}
{"gene": "ERAP2", "siRNA no.": 2, "G2 robust z-score": -0.166, "G2 cells, % of GMNN control": 1.8}
{"gene": "ERAP2", "siRNA no.": 3, "G2 robust z-score": 0.0631, "G2 cells, % of GMNN control": 3.41}
